No constants are given. Whether binding was seen depends on the method and setting. Binding seen in cells or lysates may run through a third protein. Some binding calls cover weakened binding; strength is not graded here. Where a sequence is shown, tags or fusion partners need not be part of it.
Target: T1, endogenous E3 ligase TMEM129 (human (endogenous in HeLa)) (UniProt A0AVI4)
T1 sequence: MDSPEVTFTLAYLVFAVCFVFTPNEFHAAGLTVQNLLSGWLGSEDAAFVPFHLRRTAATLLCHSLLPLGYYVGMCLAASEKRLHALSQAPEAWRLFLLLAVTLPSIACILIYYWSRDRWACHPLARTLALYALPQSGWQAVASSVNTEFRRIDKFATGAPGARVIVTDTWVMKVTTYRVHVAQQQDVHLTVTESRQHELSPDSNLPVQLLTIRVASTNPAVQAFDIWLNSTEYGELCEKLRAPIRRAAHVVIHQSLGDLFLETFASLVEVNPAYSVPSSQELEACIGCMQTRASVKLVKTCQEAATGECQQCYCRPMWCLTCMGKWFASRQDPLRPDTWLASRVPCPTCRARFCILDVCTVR
Experiment: co-IP; HeLa^FcRn cells without US11, transfected with Derlin-1 plasmid for 48 h; anti-FLAG or anti-TMEM129 antibody; western blot

B1: Myc-tagged Derlin-1 (protein, UniProt Q9BUN8 1-251)
chain: MSDIGDWFRSIPAITRYWFAATVAVPLVGKLGLISPAYLFLWPEAFLYRFQIWRPITATFYFPVGPGTGFLYLVNLYFLYQYSTRLETGAFDGRPADYLFMLLFNWICIVITGLAMDMQLLMIPLIMSVLYVWAQLNRDMIVSFWFGTRFKACYLPWVILGFNYIIGGSVINELIGNLVGHLYFFLMFRYPMDLGGRNFLSTPQFLYRWLPSRRGGVSGFGVPPASMRRAADQNGGGGRHNWGQGFRLGDQ
binding: binds

Source: article PMC6617459
